The target in this test is HA::MJL-1 (MAJIN-Like-1) (C. elegans) (UniProt Q93229). As to the kind of experiment: co-IP; HA::MJL-1 immunoprecipitated with anti-HA antibody on Dynabeads Protein A from sonicated lysate of nuclei of ha::mjl-1; v5::sun-1 hermaphrodites; 130 mM NaCl, 2.5 mM MgCl2, 25 mM Hepes pH 7.4, 2 mM EGTA, 1% Triton X-100; 4°C, 2 hours; blots with anti-HA and anti-V5.

Protein sequences, listed by entry. Tags and fused reporters are not part of them. Lines headed by an entry give the natural chain unless they say otherwise; changes in a name come on top.
UniProt Q93229: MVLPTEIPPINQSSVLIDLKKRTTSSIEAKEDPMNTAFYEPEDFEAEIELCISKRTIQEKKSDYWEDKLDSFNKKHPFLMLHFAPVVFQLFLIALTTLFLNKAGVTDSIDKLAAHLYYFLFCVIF

Results are given in words; binding and its absence hold for the method and conditions named. In cells and extracts the contact can be indirect. Binding calls can cover weak binding; strength is not graded here. Sequences can lack the tags named with a protein.

The record followed here is article PMC9908027.

B1: V5::SUN-1 (protein, UniProt Q20924 1-473)
chain: MALRHTISPQFSNRHSPPVTRSVSRTGVHQPLDTSTPVTRRDSQPGTITGTIQRFHESADDSEIDLNSSKFIYKEHFSYKEITSMKKEMWYDWLEYRIRMVRRRFVPTWAQFKRTLMAVVLFAMLYKYARDCLFDGTHHNSEGSYADKDANWASEKQKFHQTISNLRAEFSAHDKQLDFKTDHLEKLLENVLEHSKGWKESAIEELKQIKLWQAEISDALQQMKKEIDDAKSTKIIHSTPEKAPETAPTASLPPSSQLQPMHITRRALLGVNVANSLIGASIDHSCSSRPVSAKDGFFYDFMSYFGTFQEGYALLDRDVLSPGEAWCTYDKRATLTVKLARFVIPKSVSYQHVRWSGIVPNHAPKLYDVVACTDSCCTKWQPLVANCEYKERDGSYDEQEQFCSVPTIQNHSPINHVQFRFRENHGDMPKTCAYLIRVYGEPVDPPKETQPMTDNGTESKLESAIVNSVSETA
Turning to B1, the binding entry is listed as “binds”.
